The whole screen tested about 53,000 sequences, of which about 3,700 (7%) were called active.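 How the source made its calls: active means gene knockdowns whose robust z-score for IL-1 alpha signal is at least 2 or at most -2, so actives lie on both sides; inactive means the rest.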 The list shows a part of the results.
Experiment: Components of the Cytosolic LPS Sensing Pathway: Gene Identification via Genome-wide siRNA Screen;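 further: robust z of the log signal after scaling to non-targeting control siRNA wells of the plate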
Settings: RAW264.7 macrophages, IL-1a HTRF, actives lie on both sides, screened at 100 nM (by protocol), cells primed 5 h with Pam3CSK4 first
Summary of the method: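 Three distinct siRNAs per gene were tested singly at 100 nM in RAW264.7 macrophages. Following Pam3CSK4 priming and 24 hour LipidA transfection, IL-1a secretion was read by HTRF.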

Row | Sequence | z-score
1 | GGUCCAGAUCAGUUGACAGTT against Srsf5 | inactive: 0.812
2 | CCAGGAUUCGGACAAAACUTT against Mettl16 | inactive: -1.47
3 | GGAAGAGGAAGAUAUUGAUTT against Bbx | inactive: -0.799
4 | CCACCACCUAUUACAAUGATT against Lcn5 | inactive: 1.72
5 | GCUUCAAUAACUGCGCAAGTT against Zkscan2 | inactive: 0.547
6 | GGUUUUCCUAAACUCUUGATT against Usp6nl | inactive: -0.3
7 | GCAACUGGUGAUAAGGUGUTT against Flywch1 | inactive: 0.486
8 | GAACGACACAAGGCCUUCATT against Olfr585 | inactive: 0.9
9 | GGGACUUCAACAGAUAUGUTT against Kdm4b | inactive: -1.92
10 | GGCAAUCUACUCAUUGUUGTT against Olfr1239 | inactive: -0.719
11 | GGAGAUGAAGAGGUUGGUUTT against Olig3 | inactive: -0.569
12 | GGUGGUAAAAGAUACGACCTT against Atp6v1e1 | inactive: 0.0668
13 | GGCAUUCUGAAAACAACUCTT against Hvcn1 | active: 2.02
14 | GCCGAUGUCAGUGGUUAAATT against Bmx | inactive: 0.198
15 | GCAUAGUUCAGAUUUACAGTT against Zfp27 | inactive: -0.745
16 | CCAUAGACUUCAUUGUACATT against Lipf | inactive: -0.434
17 | GGAUACAGAAGGUUUUCUUTT against Abcd4 | inactive: -0.137
18 | CCACUCAAUCCUUAGCAAGTT against Abi2 | inactive: -1.31
19 | GCUCCACCAAACUAAUGCGTT against Polrmt | inactive: 0.816
20 | GGCCAAAGUCCACACAAGUTT against Naaa | active: 2.12
21 | CCCAGCUCAGGUUUCUAUGTT against Dact2 | inactive: 0.0333
22 | GGCAGAGGAAAUCAUGAAGTT against Clpp | inactive: -1.05

Row | Sequence | z-score
23 | GGUAUAGCUACCAUUUUUCTT against Ggct | inactive: -1.05
24 | GGAACAUUGACCAGAUAGUTT against Ankrd44 | inactive: -1.44
25 | GGUCAACCUCAAAGUCUUUTT against Il17a | inactive: 0.581
26 | CGAUGGGUUGUAUGAGACCTT against Fut10 | inactive: -0.231
27 | GCAGUAUAAGAAUUUCAUGTT against Thada | inactive: -0.325
28 | GGGACACAACCACAAUAACTT against Susd3 | inactive: -0.876
29 | GGACGCGGAGAAGAAAGUUTT against Ybx3 | inactive: -0.425
30 | GCUUUCAUAGAAUCUUGGCTT against Rnf24 | inactive: 0.709
31 | GCAAUGAACCCUAGAAUUATT against Col4a1 | inactive: 0.36
32 | GGCUUGGUAGCCAUCCUCATT against Lrrc27 | inactive: 1.1
33 | GGGUAUUGGUUUUAGAGCATT against Emd | inactive: 0.37
34 | CCGGGUAGUGAGUAAGCUUTT against Neu2 | active: -3.51
35 | GGAUGGCAGCUUUGACCUUTT against Cdc42ep2 | inactive: 0.566
36 | GCCUGGCUUGUAACUUCACTT against 1700034H15Rik | inactive: 0.0703
37 | GCCUGUAUCAAUAAUUCAATT against Asprv1 | inactive: 0.178
38 | GGAAGUGAUUGCCAUCAAATT against Sh3bp4 | inactive: -0.984
39 | GCUGCCAUUUAUCAACCUUTT against Esrp1 | inactive: 0.981
40 | GCGCAGAACCCAGAUGAAGTT against Necap2 | inactive: 0.836
41 | GGAGAUCCGUCGAAUCAACTT against Anxa4 | active: 3.19
42 | GCUUUCUCUUAUGGAUCUATT against Olfr700 | inactive: 0.966
43 | GGGCCUGUGAAACUUGUGCTT against Mrps16 | inactive: -0.385
44 | GGGACUGAAAUCUAUUUUGTT against Zfp217 | active: 2.16

Row | Sequence | z-score
45 | CCUGACAAGACAUUUCAAATT against Dusp22 | inactive: -0.987
46 | GGGAAAUUUGUCCUGUUAATT against Hibadh | inactive: -0.3
47 | GGAGAAGUCAUUGUUUUUGTT against Klhdc2 | inactive: -0.493
48 | GCCAUACCCUCCAAUAAAGTT against Cfap410 | inactive: -1.47
49 | GCUCAGUAUGUUUGGGAGUTT against 5330416C01Rik | inactive: 1.98
50 | GCAGGUUUAUGAAAGCUUUTT against Rictor | inactive: -1.33
51 | GGACCUAGUGCGUUCCAAATT against H1f7 | active: 2.92
52 | GGACCGAUAUAACCUACCCTT against Rps4x | inactive: 0.0626
53 | GGCACGAUAUUAUUUUCAGTT against Lrfn5 | inactive: -0.229
54 | GGCUUUUUUGCCAUUGCUATT against Wnt9b | inactive: 0.19
55 | GGAAACAGCUGCUAAGUGCTT against Hsd17b11 | inactive: -1.38
56 | GGCAGCGAUUGACAAAAUGTT against Eefsec | inactive: -0.756
57 | GCUAUCAUAUGUGCCCUAATT against Mrgprx1 | inactive: -0.702
58 | GGUAUGGGAGAUGACUCUATT against Fastkd5 | inactive: 0.0645
59 | CCACCAUCAUGAGAGAGGATT against Olfr350 | inactive: 0.00462
60 | GGUGCUCUGCCAAACUGUUTT against Mmaa | inactive: 0.518
61 | CCAUGCAACUUUAAAAAGCTT against Tmem69 | inactive: -0.738
62 | GUCUCUUUGCCCUGUGCUATT against Vmn1r239-ps | inactive: 0.0206
63 | GGGUACCUACAUAGACAAGTT against Rps11 | inactive: 0.0651
64 | GGAACUACUACUCACCUAUTT against Trhr | inactive: -0.776
65 | GGCCAAGUGAUAGAGUUCATT against Crygd | inactive: 1.22
66 | GCCCUUGAGUGAAAGAGAUTT against Clspn | inactive: -1.91

Taken from above:
Value for GGGUACCUACAUAGACAAGTT against Rps11 under z-score: inactive: 0.0651
Value for GGACCGAUAUAACCUACCCTT against Rps4x under z-score: inactive: 0.0626

Next part.

Row | Sequence | z-score
67 | GCUUAAUCAGCUAAUCAAUTT against Sult1c2 | inactive: 0.699
68 | GCAUACCAUCUUAUUUUGGTT against Sptlc1 | inactive: 0.159
69 | GGGAGCAACUGUGUCAAAUTT against Tspan10 | inactive: 1.06
70 | GGCGGACAUCACUUAUGAGTT against Gopc | inactive: -0.862
71 | GGCAUCCAAAAUUUUCAACTT against Nxph3 | inactive: -0.29
72 | CUUUAGACUUCAUGCUCUCTT against Olfr128 | inactive: 0.909
73 | CCUACGAGGAUUAUGUUGATT against Myl6 | inactive: -0.736
74 | GGAUUGACUUCAUGGAUAUTT against Btc | inactive: 0.492
75 | GGCUCAAAGGAGGGUAGAGTT against Lcn8 | active: 3.18
76 | GGCAACAUAGUAAUUGUGGTT against Olfr1223 | inactive: -0.957
77 | GGAAGAUGAGUUUCAUAAUTT against Htra3 | inactive: 1.45
78 | GCAUUUGAUGAAGACUCGATT against Barx2 | inactive: 0.467
79 | GCAAGUCAAGUGGGCCAAATT against G430095P16Rik | inactive: 0.249
80 | GGGCUUUGAGCGUGAGUACTT against Adcy7 | inactive: 0.765
81 | GGUACUUCUUCCUUGCUCATT against Itm2c | inactive: 0.158
82 | GGCCAUUAACAGCAGUCUGTT against Kifc5b | inactive: -1.71
83 | GGAGUUGAAAGCUCUGCUCTT against S100a7a | inactive: 1.39
84 | GCAUUUCGUCAGGGCAAAATT against Fuca1 | inactive: -0.515
85 | GCCUUAAAAGACCUGACGUTT against Abca8b | active: 2.12
86 | GGAGAUUCUGUCAGACAGGTT against Pomgnt1 | inactive: -1.21
87 | GGUGAUGACCAACUCAGUGTT against Prcc | inactive: -0.13
88 | GCCGAUGAUGAGAAACGACTT against Cd2 | inactive: -0.279

Retrieved one by one from the list above (7):
Row | Sequence | z-score
12 | GGUGGUAAAAGAUACGACCTT against Atp6v1e1 | inactive: 0.0668
62 | GUCUCUUUGCCCUGUGCUATT against Vmn1r239-ps | inactive: 0.0206
41 | GGAGAUCCGUCGAAUCAACTT against Anxa4 | active: 3.19
10 | GGCAAUCUACUCAUUGUUGTT against Olfr1239 | inactive: -0.719
82 | GGCCAUUAACAGCAGUCUGTT against Kifc5b | inactive: -1.71
67 | GCUUAAUCAGCUAAUCAAUTT against Sult1c2 | inactive: 0.699
5 | GCUUCAAUAACUGCGCAAGTT against Zkscan2 | inactive: 0.547

Later entries:

Row | Sequence | z-score
89 | GGGAAGGUCACCGUCAAGUTT against Ppp1r14b | inactive: -1.95
90 | GAAGUUACAGUGAAGUCUCTT against Zfp395 | inactive: -0.829
91 | AUACGAUGUUGUGGUCAGCTT against Dhrs7c | inactive: -0.297
92 | GGACCAUAGAUGAGAAAAGTT against Npvf | inactive: 0.322
93 | CCUAGGAUAGAGAUUGUUGTT against Ndufaf3 | inactive: 0.135
94 | GGCAAAAGGAAGAGGACGATT against Brd4 | inactive: -1.99
95 | GGACGAAUUUCUUACAGUATT against Mterf4 | active: 2.2
96 | CCGUCUUAAUGGAUGAUUGTT against Dlec1 | inactive: 0.395
97 | GGAUGCUCUCCAAUGAAUCTT against Arhgap28 | inactive: -0.358
98 | GACAGGAAGUUGAUGAAUUTT against Raet1a | inactive: -0.468
99 | CCUUAGAGAGCUACGCCAUTT against Mrgprh | inactive: 0.262
100 | GCAGUGUUAGACUUUUAUGTT against Ermard | inactive: 0.749
101 | CGGAAGUCUACACGUCUUGTT against Arpin | inactive: 0.963
102 | GGAGAUAAUCCUUGUCACGTT against Whamm | inactive: 0.592
103 | CCUGGUGUUUGUCUGUACUTT against Cxcr6 | inactive: 0.896
104 | GGAAUUGGUCUAUAUGCGUTT against Il2ra | inactive: -1.02
105 | GGCAUUCACUAACCAGUUATT against Nfyb | inactive: 0.838
106 | GGCAAAGCACCUUUAUCUGTT against G430095P16Rik | inactive: -0.664
107 | GGUAUACGCUCUCGUAUUGTT against Rbbp9 | inactive: -0.737
